The text below walks through data of publication PMC10289811.

The chains behind the UniProt entries cited, without tags or fusion partners. Residues count along the entry.
UniProt Q04164, residues 42-1693: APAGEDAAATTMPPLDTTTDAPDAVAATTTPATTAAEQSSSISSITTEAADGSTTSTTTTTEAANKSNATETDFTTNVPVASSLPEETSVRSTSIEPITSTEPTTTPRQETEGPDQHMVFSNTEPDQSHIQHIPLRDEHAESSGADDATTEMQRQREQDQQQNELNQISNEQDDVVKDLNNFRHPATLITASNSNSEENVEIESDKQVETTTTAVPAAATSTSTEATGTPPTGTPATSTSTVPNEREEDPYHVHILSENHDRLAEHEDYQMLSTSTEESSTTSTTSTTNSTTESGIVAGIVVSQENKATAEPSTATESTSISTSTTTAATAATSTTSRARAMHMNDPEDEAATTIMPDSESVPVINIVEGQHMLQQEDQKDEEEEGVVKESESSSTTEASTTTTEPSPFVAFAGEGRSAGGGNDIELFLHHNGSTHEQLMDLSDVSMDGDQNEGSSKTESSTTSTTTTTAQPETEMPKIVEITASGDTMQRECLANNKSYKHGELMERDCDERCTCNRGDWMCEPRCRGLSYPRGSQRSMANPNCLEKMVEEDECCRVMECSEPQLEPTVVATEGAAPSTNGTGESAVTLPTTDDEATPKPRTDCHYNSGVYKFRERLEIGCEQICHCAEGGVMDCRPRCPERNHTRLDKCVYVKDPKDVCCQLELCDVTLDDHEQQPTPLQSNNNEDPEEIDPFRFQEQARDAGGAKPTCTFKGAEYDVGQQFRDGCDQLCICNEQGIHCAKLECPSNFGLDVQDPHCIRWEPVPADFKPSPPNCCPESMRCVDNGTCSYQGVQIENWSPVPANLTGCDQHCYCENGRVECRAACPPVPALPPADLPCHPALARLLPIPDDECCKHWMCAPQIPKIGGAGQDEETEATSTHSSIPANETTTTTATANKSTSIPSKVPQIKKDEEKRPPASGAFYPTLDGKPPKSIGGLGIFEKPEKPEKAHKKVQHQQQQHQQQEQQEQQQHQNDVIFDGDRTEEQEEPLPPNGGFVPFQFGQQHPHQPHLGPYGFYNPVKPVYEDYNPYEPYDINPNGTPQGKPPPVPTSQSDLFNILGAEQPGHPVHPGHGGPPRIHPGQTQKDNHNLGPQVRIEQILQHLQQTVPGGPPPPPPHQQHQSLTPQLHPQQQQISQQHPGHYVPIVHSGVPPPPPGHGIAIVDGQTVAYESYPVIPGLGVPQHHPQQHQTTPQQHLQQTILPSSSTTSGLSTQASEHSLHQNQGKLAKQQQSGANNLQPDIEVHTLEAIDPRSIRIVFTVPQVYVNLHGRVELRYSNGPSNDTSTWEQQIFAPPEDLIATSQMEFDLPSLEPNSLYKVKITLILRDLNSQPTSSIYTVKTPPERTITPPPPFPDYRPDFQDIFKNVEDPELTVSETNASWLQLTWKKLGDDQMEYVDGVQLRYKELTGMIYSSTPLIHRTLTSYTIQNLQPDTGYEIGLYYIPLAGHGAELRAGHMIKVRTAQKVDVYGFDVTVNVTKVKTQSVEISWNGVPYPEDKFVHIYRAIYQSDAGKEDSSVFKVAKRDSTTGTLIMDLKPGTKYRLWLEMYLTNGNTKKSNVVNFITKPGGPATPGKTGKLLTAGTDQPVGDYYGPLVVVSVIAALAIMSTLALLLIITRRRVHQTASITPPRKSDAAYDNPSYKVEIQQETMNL

The target of the assay is V5-Sas^FL (full-length Stranded at second with a V5 epitope tag) (Drosophila) (UniProt Q04164). Description: affinity purification with mass spectrometry; EVs from S2 cells expressing V5-Sas^FL and from untransfected control cells lysed with nonionic detergent; lysate incubated with anti-V5-coupled magnetic beads; bead-bound proteins ranked by enrichment over the control.

No constants are given. Whether binding was seen depends on the method and setting. In cells and extracts the contact can be indirect. A yes stands for co-enrichment or nearness to the bait. Other partners may have been found.

B1: dArc1 (endogenous, in EVs of S2 cells) (protein, UniProt Q7K1U0 1-254)
chain: MAQLTQMTNEQLRELIEAVRAAAVGAAGSAAAAGGADASRGKGNFSACTHSFGGTRDHDVVEEFIGNIETYKDVEGISDENALKGISLLFYGMASTWWQGVRKEATTWKEAIALIREHFSPTKPAYQIYMEFFQNKQDDHDPIDTFVIQKRALLAQLPSGRHDEETELDLLFGLLNIKYRKHISRHSVHTFKDLLEQGRIIEHNNQEDEEQLATAKNTRGSKRTTRCTYCSFRGHTFDNCRKRQKDRQEEQHEE
Consider B1, for which the binding result was “binds”.
